Values from PubChem BioAssay AID1259424 (University of Nebraska Medical Center, 2018)

- Purpose: 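Seek colon cancer survival genes behaving like KSR1, using a six-gene signature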 (primary screen)
- Cell system: human HCT116 colon cancer cells
- Reagent: siRNA pool against human genes, 50 nM
- Read-out: 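Six signature mRNAs by branched-DNA multiplex assay, scaled to two housekeeping genes and non-targeting median, log2; matched to mean KSR1 knockdown profile by Pearson correlation and euclidean distance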
- Direction: mean correlation with KSR1 profile and KSR1 correlation: higher = expression change more like KSR1 knockdown; mean distance from KSR1 profile: higher = expression change less like KSR1 knockdown
The whole screen tested about 14,000 reagents; below is an unselected part. 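Higher correlation or smaller distance means closer resemblance to KSR1 loss; control wells, including KSR1 knockdowns, recur on many plates.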 Not all columns of the deposit are shown. Not stated in the record: the time to read-out.

Target gene	mean correlation with KSR1 profile	mean distance from KSR1 profile	KSR1 correlation, replicate 1
AKR1C1	-0.471	2.37	-0.358
ZNF703	-0.386	3.35	-0.445
DDX28	-0.387	2.13	-0.508
RASGRP1	0.573	1.5	0.469
CSGALNACT1	-0.165	3.54	-0.187
UHRF1	0.378	1.64	0.275
PHF6	0.562	1.41	0.449
IPO8	-0.605	2.28	-0.4
BAIAP2	-0.449	1.66	-0.548
GPR50	0.564	1.45	0.519
MTO1	-0.614	2.23	-0.484
IL12RB2	-0.685	2.43	-0.755
NUP88	-0.347	2.69	-0.169
IL37	-0.525	2.19	-0.523
KRT18	0.0522	1.79	-0.0817
ZNF767P	-0.329	2.83	-0.205
SLC22A11	-0.774	2.44	-0.577
TRIB3	0.139	2.79	-0.0496
GTF2A1L	0.607	1.8	0.625
CSF1R	-0.0866	3.16	-0.254
COPS7A	-0.558	2.05	-0.528
PALS1	-0.146	1.44	-0.306
TOPBP1	0.655	1.75	0.5
IBSP	0.474	2.7	0.538
KDR	0.267	2.28	0.235

Continued, starting with the last 3 of the part before.
Target gene	mean correlation with KSR1 profile	mean distance from KSR1 profile	KSR1 correlation, replicate 1
TOPBP1	0.655	1.75	0.5
IBSP	0.474	2.7	0.538
KDR	0.267	2.28	0.235
ABHD17C	-0.472	2.96	-0.723
PSMD14	-0.00568	1.91	-0.0442
NR1H2	-0.855	1.31	-0.462
CASP3	-0.101	2.08	-0.0357
PARP8	0.481	2.38	0.549
ABCB11	-0.386	2.58	-0.372
PRKAR1A	0.527	2.15	0.629
TESK2	0.683	1.39	0.791
IL1RN	0.488	1.13	0.557
TSPAN1	-0.391	1.99	-0.215
OR2K2	-0.509	2.67	-0.164
GRAMD1A	-0.612	3.14	-0.576
SLC38A4	-0.0779	2.23	-0.105
STKLD1	0.487	2.81	0.831
HAS3	-0.437	2.27	-0.258
AGTR1	0.561	2.06	0.428
SYMPK	0.725	1.31	0.0684
HMGCL	0.124	2.06	0.131
KDM2B	0.831	2.67	0.659
MAPRE1	0.484	1.32	0.454
TRIM49	-0.0661	3.92	-0.118
OR11A1	0.175	2.19	0.206
ALCAM	-0.5	2.65	-0.471
EP400	-0.142	5.86	-0.0805
TNIP2	-0.205	2.94	-0.0473
NUCKS1	0.0251	1.77	0.275
CXCL8	0.865	1.42	0.898
AKAP9	0.34	1.16	0.241
DNAJB14	0.589	1.91	0.594
PRPF38B	-0.0529	2.98	-0.143
CFAP97	-0.366	2.61	-0.208
KIF5A	-0.564	1.86	-0.644
ANKH	-0.521	2.94	-0.494
DDX18	-0.392	2.9	-0.595
METTL25B	-0.616	4.13	-0.321
COL8A1	-0.193	2.21	-0.24
TSPOAP1	0.633	0.912	0.64
ACSM5	0.0636	4.79	0.0107
